Experimental data from PMC12615396.
Results are given in words; binding and its absence hold for the method and conditions named. In cells and extracts the contact can be indirect. Some results given as binding are weak or reduced against the parent protein; the word gives no strength.

By UniProt entry, the sequences of proteins in these tests, tags left out.
UniProt Q13526: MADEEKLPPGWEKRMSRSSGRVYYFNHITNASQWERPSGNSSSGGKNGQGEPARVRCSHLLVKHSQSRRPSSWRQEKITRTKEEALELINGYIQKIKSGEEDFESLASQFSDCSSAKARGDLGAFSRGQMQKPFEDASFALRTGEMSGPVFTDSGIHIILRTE
UniProt Q04206: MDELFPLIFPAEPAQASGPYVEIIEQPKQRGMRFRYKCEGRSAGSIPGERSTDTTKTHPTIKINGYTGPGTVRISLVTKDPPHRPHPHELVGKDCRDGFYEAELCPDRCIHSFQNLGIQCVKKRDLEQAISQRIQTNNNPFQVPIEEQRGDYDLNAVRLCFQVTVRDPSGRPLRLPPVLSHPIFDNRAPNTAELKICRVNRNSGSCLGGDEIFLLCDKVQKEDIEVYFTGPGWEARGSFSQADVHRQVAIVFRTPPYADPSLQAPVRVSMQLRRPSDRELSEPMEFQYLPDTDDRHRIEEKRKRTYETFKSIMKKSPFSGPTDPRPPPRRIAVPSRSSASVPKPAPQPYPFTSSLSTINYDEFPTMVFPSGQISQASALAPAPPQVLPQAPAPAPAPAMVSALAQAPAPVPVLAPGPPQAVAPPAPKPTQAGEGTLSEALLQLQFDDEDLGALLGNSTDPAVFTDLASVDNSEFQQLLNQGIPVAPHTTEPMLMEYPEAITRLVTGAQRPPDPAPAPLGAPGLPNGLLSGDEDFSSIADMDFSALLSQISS

Molecular target: Pin1 (human (endogenous in SW480 and HT29)) (UniProt Q13526)
Assay: co-IP; endogenous co-IP from SW480 and HT29 lysates (IP lysis buffer with phosphatase and protease inhibitors); 2 µg anti-Pin1 antibody 12 h at 4 °C, Protein A/G agarose beads 2 h at 4 °C, five washes, western blotting

binding: binds
Substance: p65 (from UniProt Q04206 1-551)
